Assay results from publication PMC9279315.
No constants are given. Whether binding was seen depends on the method and setting. Binding seen in cells or lysates may run through a third protein. Some binding calls cover weakened binding; strength is not graded here.

The chains behind the UniProt entries cited, without tags or fusion partners.
UniProt Q9EPK5: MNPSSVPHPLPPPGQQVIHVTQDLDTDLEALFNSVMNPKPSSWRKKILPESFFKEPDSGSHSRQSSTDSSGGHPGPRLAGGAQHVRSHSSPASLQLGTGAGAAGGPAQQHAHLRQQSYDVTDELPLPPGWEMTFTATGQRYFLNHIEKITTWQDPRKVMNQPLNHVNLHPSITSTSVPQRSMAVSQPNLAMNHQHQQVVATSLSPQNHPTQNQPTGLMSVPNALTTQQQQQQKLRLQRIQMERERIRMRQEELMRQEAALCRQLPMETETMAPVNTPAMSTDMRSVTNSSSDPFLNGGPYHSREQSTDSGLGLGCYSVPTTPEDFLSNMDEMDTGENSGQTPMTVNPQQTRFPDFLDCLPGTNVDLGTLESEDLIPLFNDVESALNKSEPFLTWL
UniProt P02340: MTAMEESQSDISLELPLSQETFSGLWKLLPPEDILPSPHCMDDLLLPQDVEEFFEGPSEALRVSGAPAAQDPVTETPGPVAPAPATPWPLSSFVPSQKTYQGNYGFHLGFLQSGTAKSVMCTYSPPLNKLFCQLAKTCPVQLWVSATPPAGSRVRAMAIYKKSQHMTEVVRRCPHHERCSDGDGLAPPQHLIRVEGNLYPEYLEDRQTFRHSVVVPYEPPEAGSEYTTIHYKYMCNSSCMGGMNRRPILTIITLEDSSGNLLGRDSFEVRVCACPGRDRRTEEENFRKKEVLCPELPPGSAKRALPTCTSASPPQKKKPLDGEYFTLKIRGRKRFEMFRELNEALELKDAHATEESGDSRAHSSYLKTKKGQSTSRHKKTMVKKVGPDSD

Molecular target: flag-TAZ (transcriptional co-activator with PDZ-binding domain) (UniProt Q9EPK5)
Assay: co-IP; HEK293T cells transfected with plasmid GFP-Trp53 or/and flag-TAZ; which partner was precipitated is not told

binding: binds
Substance: GFP-Trp53 (transformation-related protein 53) (from UniProt P02340 1-390)
